Some of the results follow. Small differences around the control level are noise.
These targets were tested with CN[C@@H]1C[C@H]2O[C@@](C)([C@@H]1OC)n1c3ccccc3c3c4c(c5c6ccccc6n2c5c31)C(=O)NC4 [staurosporine] (assay: log2 fold change of tryptic peptide abundance, ligand vs vehicle (limited proteolysis) (log2 ratio); higher = more trypsin-susceptible (destabilized)). Settings: ligand concentration: 20 uM; sample: K562 cleared lysate; digestion: 4 min, 22 C (HT-PELSA RT4min, Orbitrap Astral).

The chains behind the UniProt entries cited, without tags or fusion partners. Where a name states a change or a piece, a line headed by the entry shows the natural chain unless it says otherwise.
UniProt Q9H3U5: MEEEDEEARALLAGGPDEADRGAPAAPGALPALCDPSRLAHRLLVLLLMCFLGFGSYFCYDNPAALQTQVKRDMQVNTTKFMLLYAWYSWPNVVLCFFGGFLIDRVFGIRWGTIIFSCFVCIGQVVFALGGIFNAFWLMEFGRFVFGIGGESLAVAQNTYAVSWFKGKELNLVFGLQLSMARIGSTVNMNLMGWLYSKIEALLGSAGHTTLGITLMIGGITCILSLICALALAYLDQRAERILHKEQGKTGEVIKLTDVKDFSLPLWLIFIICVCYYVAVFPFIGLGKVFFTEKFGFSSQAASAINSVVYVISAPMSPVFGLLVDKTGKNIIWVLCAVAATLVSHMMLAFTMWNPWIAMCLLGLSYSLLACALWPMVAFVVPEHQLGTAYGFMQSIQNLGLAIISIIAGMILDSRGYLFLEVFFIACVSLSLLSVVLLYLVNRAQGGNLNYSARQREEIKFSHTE
UniProt Q9GZX5: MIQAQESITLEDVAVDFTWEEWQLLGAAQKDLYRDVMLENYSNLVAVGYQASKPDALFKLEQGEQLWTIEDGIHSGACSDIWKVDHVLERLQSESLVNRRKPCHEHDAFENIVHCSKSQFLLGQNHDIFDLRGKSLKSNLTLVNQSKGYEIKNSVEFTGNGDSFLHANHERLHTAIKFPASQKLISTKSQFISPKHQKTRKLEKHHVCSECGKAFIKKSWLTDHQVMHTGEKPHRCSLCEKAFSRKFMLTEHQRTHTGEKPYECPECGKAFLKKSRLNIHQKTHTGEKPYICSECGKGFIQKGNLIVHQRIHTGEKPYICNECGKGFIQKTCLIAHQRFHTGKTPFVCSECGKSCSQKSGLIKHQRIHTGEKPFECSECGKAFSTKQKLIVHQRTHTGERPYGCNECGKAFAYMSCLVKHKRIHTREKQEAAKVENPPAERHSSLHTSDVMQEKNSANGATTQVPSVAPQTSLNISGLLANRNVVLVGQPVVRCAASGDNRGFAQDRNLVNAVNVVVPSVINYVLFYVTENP
UniProt Q9H089: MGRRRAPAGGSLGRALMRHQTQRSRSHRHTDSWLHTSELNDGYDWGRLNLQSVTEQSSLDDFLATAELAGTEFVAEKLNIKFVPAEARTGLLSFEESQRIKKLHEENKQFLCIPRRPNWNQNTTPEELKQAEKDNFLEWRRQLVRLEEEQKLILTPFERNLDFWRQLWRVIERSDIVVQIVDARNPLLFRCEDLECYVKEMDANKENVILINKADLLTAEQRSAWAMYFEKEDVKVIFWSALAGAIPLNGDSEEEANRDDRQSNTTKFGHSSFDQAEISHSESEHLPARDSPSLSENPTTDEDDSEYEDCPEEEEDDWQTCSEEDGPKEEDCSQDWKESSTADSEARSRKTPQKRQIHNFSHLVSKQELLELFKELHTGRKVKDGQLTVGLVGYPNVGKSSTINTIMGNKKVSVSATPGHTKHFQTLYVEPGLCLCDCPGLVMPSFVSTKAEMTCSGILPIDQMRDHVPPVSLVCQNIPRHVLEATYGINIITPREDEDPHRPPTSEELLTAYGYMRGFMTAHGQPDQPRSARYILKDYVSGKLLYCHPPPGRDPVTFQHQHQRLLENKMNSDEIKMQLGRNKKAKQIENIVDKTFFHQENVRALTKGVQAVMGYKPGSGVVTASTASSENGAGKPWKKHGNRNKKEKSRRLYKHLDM
UniProt Q9BX69: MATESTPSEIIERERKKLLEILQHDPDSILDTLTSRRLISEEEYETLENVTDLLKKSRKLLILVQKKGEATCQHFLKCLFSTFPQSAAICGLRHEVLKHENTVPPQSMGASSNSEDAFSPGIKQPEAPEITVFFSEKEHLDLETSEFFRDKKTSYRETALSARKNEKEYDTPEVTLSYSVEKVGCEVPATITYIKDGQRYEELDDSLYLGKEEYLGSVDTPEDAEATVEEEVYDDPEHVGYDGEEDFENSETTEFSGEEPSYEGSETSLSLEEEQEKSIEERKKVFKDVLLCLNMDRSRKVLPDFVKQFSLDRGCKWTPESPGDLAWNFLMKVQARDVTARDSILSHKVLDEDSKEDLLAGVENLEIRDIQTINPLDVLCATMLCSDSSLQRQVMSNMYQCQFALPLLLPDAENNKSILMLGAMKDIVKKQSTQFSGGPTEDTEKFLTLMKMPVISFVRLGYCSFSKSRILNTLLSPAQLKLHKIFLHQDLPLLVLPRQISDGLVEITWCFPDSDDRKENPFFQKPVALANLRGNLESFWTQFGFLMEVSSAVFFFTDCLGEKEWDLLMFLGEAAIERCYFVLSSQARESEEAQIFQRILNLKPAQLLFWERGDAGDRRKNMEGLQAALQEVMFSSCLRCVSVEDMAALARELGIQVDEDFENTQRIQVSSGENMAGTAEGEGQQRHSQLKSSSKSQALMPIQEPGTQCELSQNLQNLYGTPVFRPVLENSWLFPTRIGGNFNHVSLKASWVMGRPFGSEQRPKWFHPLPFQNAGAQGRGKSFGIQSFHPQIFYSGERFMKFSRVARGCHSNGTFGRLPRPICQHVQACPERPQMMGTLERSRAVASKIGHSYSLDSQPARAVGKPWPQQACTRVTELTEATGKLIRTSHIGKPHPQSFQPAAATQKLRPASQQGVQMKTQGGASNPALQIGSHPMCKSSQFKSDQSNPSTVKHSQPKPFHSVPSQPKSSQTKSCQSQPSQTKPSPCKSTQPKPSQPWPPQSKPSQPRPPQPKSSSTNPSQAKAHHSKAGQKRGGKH
UniProt Q9H223: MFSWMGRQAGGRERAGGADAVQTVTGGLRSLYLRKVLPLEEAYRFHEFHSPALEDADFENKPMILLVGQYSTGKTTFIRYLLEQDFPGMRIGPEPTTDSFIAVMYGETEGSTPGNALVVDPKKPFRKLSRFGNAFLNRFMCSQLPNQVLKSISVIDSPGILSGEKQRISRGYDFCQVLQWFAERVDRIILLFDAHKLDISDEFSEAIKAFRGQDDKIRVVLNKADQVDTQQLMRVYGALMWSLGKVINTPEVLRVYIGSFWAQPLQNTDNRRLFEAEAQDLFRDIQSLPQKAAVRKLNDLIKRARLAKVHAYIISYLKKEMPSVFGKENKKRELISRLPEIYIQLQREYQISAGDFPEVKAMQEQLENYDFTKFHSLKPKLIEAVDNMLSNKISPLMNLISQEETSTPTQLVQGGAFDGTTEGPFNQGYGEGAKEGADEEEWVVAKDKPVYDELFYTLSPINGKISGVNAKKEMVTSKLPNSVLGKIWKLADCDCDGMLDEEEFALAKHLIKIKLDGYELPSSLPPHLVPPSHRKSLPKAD
UniProt Q9H3H3: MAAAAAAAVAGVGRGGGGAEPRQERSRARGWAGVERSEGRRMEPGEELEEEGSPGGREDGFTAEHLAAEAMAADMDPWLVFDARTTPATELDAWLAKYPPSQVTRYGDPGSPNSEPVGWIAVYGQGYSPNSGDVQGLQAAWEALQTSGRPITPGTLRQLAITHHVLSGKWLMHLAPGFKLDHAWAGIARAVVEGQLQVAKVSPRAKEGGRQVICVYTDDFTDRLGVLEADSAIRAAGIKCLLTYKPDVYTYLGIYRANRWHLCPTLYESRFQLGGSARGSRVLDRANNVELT
UniProt Q9H444: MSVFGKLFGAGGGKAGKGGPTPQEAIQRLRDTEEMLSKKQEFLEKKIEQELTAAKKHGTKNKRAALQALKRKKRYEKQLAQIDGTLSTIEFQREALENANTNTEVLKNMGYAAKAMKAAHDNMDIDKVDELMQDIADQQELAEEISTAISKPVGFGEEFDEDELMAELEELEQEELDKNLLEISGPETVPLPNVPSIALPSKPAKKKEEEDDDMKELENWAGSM
UniProt Q9C073: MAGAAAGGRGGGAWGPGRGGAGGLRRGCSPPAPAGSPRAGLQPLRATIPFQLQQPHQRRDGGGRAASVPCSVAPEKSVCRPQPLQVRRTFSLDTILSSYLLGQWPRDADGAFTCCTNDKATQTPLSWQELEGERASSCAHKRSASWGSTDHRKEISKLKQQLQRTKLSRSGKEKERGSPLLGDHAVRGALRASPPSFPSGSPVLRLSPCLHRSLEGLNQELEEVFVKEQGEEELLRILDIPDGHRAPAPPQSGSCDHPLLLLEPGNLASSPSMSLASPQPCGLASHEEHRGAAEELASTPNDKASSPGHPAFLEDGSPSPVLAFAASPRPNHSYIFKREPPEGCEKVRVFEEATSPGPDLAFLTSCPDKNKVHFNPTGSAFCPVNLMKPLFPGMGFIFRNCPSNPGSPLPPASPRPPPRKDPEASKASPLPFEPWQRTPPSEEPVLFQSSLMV

| Target | log2 fold change |
| --- | --- |
| MFSD1 (peptide sequence: ALLAGGPDEADR, peptide start residue: 10) (UniProt Q9H3U5) | 0.0183 |
| UniProt Q9GZX5 (peptide sequence: NVVLVGQPVVR, peptide start residue: 483) | -0.249 |
| LSG1 (peptide sequence: EMDANKENVILINK, peptide start residue: 200) (UniProt Q9H089) | 0.55 |
| CARD6 (peptide sequence: TQGGASNPALQIGSHPMCK, peptide start residue: 920) (UniProt Q9BX69) | -0.399 |
| EHD4 (peptide sequence: VINTPEVLR, peptide start residue: 246) (UniProt Q9H223) | 0.355 |
| C11orf68 (peptide sequence: WHLCPTLYESR, peptide start residue: 260) (UniProt Q9H3H3) | -0.326 |
| CHMP4B (peptide sequence: KQEFLEK, peptide start residue: 39) (UniProt Q9H444) | 0.13 |
| FAM117A (peptide sequence: GSPLLGDHAVR, peptide start residue: 177) (UniProt Q9C073) | 0.204 |
| ITPA (peptide sequence: KLEEVVQILGDKFPCTLVAQK, peptide start residue: 19) (UniProt Q9BY32) | 0.309 |

2 successive records out of the list so far, for reference:

| Target | log2 fold change |
| --- | --- |
| LSG1 (peptide sequence: EMDANKENVILINK, peptide start residue: 200) (UniProt Q9H089) | 0.55 |
| CARD6 (peptide sequence: TQGGASNPALQIGSHPMCK, peptide start residue: 920) (UniProt Q9BX69) | -0.399 |

From the supplement of paper PMC12819154, “High-throughput peptide-centric local stability assay extends protein–ligand identification to membrane proteins, tissues and bacteria” (Nature Structural & Molecular Biology, 2025)
